{
  "source": "patent US8518677B2",
  "about": "“Microbial bioreaction process” (Evolva Sa, priority 2007, dated 2013)",
  "assay": "Stilbenoid levels in batch culture of PALCPR-evolved-III with nonyl-acetate vs control (HPLC)",
  "parameters": "species or system S. cerevisiae",
  "procedure": "A Phenomenex (Torrance, Calif., USA) Luna 3 micrometer C18 (100×2.00 mm) column was used at 60° C. As mobile phase a gradient of acetonitrile and milliq water (both containing 50 ppm trifluoroacetic acid) was used at a flow of 0.4 ml/min. The gradient profile was linear from 15% acetonitrile to 100% acetonitrile over 20 min.\nThe stirrer speed was instantly set at 800 rpm. […] The cultivation will be referred to as PALCPR-solvent. […] The cultivation will be referred to as PALCPR-control.\nFor the determination of stilbenoids, an aliquot of 25 ml of cell broth was collected, and phase separation was initiated by centrifugation at 3500 g for 5 minutes. Both the upper nonylacetate phase and the lower aqueous medium phase were collected separately with a pipette and directly analyzed for their content of stilbenoids and intermediates by HPLC.",
  "data": [
    {"compound": "O=C(O)C=Cc1ccccc1", "note": "[Cinnamic acid, cinnamic acid]", "values": [
      {"measurement": "Supernatant", "setting": "PALCPR-control (PALCPR-evolved-III), no solvent", "result": 76.36, "unit": "mg/L"},
      {"measurement": "Upper phase (0.1 L) concentration", "setting": "PALCPR-solvent (PALCPR-evolved-III), 100 ml nonyl-acetate from start", "result": 252.82, "unit": "mg/L"},
      {"measurement": "Lower phase (1 L) concentration", "setting": "PALCPR-solvent, aqueous phase, nonyl-acetate", "result": 60.05, "unit": "mg/L"},
      {"measurement": "Total produced in 1 L, % total", "setting": "PALCPR-solvent, nonyl-acetate", "result": 100, "unit": "% total"},
      {"measurement": "Total produced in 1 L", "setting": "PALCPR-solvent, nonyl-acetate, upper/10 + lower", "result": 85.33, "unit": "mg/L"}
    ]}
  ]
}
